Results published in the supplement of paper PMC11732987, “Enantioselective OTUD7B fragment discovery through chemoproteomics screening and high-throughput optimisation” (Communications Chemistry, 2025).
This is one part of the list. The data scatter; read single values as rough.

By UniProt entry, the sequences of proteins in these tests, tags left out. Where a name states a change or a piece, a line headed by the entry shows the natural chain unless it says otherwise. Residues count along the entry.
UniProt Q8IWC1: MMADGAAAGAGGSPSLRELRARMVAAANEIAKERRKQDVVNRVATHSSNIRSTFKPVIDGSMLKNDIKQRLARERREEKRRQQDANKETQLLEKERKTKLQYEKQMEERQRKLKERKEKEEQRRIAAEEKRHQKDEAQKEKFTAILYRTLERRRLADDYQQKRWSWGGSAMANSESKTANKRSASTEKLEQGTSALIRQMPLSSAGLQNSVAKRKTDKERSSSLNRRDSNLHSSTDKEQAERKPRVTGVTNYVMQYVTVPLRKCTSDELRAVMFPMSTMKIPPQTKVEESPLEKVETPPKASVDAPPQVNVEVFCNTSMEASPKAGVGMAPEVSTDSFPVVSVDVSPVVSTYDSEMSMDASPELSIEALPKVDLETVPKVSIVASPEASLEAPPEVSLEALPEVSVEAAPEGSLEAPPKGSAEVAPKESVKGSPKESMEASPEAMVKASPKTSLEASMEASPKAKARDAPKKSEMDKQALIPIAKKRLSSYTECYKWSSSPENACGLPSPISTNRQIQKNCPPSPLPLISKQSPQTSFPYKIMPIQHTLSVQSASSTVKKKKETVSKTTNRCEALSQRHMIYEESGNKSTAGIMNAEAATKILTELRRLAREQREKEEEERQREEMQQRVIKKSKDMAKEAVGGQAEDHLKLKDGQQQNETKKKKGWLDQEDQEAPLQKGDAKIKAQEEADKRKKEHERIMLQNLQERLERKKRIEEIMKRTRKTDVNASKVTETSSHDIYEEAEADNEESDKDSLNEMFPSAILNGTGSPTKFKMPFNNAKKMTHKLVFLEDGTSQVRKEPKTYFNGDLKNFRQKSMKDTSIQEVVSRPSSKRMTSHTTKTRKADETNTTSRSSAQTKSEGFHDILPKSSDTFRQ
UniProt Q8IVH8: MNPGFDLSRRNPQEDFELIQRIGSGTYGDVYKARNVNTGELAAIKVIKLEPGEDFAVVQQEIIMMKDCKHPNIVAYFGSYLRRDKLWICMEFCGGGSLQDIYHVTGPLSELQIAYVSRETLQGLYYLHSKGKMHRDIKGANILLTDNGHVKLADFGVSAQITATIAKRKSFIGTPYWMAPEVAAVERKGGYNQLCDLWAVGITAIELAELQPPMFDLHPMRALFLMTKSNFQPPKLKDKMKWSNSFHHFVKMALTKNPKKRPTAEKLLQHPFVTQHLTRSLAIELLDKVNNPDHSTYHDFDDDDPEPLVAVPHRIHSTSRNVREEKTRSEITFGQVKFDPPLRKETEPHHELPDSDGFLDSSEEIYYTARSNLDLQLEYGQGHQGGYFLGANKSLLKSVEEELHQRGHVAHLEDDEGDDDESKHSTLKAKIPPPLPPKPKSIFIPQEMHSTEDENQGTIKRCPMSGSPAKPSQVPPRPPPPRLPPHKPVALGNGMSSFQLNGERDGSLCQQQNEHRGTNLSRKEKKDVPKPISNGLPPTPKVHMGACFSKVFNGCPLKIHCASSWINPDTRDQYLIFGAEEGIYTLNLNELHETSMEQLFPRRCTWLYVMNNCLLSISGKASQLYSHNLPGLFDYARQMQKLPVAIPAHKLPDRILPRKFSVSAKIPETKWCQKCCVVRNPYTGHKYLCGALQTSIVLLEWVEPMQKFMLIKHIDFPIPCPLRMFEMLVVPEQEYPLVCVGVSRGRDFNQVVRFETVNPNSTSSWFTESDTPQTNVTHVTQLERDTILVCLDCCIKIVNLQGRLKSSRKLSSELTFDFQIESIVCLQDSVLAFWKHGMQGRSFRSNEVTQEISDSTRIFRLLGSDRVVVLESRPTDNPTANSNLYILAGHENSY
UniProt Q9Y6R4, 178-197: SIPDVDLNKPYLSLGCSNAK
UniProt Q9Y546: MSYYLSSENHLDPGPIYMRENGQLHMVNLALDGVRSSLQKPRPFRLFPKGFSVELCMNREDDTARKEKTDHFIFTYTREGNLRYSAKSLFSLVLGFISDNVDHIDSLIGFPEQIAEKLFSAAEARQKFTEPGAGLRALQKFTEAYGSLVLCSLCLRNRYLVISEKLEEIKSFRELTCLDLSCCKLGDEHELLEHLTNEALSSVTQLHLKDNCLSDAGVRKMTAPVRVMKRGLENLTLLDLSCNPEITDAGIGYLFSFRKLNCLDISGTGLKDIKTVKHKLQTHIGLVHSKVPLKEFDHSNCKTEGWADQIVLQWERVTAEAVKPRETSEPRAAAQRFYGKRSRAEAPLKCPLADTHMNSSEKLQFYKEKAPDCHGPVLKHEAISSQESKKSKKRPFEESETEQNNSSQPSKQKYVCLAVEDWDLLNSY
UniProt P07948: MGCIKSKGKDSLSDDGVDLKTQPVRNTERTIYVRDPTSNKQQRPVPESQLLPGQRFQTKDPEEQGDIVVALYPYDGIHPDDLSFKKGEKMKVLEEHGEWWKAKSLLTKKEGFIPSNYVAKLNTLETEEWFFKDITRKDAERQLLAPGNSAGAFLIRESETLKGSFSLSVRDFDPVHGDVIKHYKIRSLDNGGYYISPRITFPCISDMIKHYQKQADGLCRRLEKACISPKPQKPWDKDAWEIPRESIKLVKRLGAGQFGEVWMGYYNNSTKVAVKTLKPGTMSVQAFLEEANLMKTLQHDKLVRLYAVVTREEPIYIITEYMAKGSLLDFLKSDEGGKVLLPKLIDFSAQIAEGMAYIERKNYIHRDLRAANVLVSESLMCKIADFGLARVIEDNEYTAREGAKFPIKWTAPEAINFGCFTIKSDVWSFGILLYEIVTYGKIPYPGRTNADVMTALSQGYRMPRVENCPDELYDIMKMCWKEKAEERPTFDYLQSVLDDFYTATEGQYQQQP
UniProt Q9ULX9: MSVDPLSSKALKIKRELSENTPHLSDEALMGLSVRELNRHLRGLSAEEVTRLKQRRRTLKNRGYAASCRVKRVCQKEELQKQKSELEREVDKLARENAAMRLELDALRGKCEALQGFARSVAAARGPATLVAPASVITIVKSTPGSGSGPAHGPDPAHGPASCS
UniProt Q9NQ48: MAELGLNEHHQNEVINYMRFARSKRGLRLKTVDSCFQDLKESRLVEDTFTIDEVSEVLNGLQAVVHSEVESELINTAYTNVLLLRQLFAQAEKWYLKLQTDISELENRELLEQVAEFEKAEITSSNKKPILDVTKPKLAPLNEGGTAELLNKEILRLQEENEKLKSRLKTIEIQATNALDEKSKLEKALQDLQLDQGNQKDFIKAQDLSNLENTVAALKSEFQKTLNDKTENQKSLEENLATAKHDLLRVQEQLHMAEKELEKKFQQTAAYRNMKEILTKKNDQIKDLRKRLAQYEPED
UniProt Q9BX40: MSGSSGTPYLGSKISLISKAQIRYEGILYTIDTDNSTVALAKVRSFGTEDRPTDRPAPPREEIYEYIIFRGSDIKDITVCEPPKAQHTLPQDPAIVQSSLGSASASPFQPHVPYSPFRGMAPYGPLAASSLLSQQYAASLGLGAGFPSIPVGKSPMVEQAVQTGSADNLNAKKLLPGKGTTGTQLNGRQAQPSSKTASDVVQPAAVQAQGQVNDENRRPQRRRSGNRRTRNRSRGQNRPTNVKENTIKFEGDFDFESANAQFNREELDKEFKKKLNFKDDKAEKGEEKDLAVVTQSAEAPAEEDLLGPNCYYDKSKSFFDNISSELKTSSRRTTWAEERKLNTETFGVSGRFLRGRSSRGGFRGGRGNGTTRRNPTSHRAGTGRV
UniProt P23508: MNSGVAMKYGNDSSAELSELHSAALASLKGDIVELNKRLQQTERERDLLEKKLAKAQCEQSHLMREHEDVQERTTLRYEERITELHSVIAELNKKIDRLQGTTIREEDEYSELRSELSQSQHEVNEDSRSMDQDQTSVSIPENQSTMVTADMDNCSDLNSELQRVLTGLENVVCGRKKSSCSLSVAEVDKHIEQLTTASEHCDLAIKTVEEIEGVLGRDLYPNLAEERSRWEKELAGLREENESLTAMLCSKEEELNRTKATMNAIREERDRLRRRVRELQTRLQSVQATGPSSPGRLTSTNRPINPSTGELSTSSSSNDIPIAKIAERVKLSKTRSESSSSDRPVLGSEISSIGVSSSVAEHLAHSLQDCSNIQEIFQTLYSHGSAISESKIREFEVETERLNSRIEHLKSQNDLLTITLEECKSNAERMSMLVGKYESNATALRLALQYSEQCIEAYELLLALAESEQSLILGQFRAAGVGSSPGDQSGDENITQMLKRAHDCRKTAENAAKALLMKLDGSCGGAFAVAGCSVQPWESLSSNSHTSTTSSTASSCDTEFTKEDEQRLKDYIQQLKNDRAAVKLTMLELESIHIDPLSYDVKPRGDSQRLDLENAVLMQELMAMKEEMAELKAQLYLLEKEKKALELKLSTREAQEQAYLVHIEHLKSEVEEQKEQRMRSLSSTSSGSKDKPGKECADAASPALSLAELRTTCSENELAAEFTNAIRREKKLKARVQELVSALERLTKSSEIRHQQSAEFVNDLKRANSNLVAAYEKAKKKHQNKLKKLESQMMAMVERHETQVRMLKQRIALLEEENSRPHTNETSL
UniProt Q6UWE0: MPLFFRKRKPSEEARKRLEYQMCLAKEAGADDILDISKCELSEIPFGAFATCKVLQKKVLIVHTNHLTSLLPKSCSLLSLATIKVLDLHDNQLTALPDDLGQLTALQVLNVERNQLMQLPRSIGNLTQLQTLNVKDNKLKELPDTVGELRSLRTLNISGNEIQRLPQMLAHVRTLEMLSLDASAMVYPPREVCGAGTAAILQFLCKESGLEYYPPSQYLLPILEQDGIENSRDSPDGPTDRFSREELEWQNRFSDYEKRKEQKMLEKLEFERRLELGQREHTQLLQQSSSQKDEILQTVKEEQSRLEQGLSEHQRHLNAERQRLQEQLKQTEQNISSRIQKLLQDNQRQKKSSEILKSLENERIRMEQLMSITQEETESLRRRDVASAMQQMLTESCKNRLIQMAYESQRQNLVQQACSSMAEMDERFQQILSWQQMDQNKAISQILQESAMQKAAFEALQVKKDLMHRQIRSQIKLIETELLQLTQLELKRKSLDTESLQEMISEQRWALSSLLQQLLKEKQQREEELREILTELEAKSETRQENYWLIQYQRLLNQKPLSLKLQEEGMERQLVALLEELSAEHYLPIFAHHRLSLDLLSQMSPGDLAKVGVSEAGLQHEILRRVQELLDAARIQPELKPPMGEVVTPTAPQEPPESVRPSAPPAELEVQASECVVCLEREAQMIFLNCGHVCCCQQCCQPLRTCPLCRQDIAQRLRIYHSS
UniProt Q9P0L2: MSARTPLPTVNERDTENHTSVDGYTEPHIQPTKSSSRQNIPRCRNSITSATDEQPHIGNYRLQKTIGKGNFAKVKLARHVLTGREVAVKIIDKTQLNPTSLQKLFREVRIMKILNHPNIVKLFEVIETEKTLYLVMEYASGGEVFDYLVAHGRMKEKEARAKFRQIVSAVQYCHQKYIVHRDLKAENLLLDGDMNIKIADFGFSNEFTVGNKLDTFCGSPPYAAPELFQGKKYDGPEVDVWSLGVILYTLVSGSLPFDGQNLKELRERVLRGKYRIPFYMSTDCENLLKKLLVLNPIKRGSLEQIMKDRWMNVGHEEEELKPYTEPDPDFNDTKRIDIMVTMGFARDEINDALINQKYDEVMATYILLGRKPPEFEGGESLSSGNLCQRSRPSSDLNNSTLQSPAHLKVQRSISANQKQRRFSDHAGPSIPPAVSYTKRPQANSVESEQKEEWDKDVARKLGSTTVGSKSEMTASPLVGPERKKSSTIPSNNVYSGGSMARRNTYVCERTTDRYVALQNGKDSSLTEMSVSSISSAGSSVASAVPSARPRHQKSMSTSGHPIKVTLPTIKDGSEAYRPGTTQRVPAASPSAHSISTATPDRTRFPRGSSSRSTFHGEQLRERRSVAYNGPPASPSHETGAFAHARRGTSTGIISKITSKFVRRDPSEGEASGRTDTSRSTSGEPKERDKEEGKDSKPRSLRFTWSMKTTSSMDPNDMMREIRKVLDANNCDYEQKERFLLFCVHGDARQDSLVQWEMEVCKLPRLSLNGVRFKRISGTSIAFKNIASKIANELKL
UniProt Q9BRK4: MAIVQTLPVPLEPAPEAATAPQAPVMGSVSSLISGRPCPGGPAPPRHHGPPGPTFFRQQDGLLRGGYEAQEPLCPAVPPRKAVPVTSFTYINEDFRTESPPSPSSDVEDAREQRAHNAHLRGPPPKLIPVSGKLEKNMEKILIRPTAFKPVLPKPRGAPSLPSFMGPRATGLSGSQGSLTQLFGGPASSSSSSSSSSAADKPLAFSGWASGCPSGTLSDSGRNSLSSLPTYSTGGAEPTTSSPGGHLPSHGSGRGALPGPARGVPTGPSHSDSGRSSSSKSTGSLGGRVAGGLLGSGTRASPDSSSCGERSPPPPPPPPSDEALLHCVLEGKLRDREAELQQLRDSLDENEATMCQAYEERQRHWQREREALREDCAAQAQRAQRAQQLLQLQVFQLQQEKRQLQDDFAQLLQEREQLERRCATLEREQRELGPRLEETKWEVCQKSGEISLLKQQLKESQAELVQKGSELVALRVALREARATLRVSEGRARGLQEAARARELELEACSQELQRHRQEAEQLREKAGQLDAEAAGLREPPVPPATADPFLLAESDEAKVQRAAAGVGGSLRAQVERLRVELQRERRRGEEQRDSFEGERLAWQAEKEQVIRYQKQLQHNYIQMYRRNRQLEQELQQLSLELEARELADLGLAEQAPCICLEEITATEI

compound: ClCC(=O)N[C@@H]1CCCc2ccccc12; experiment: log2 mean competition ratio of IA-DTB cysteine labelling (DMSO/compound) (log2 ratio); higher = stronger cysteine engagement by compound; details: 50 µM; treatment time: 4 h; cell line lysate: HEK293T
Experimental: (§1)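 IA-DTB competitive cysteine chemoproteomics in HEK293T RIPA lysate. Lysates were treated with compound 29 or 30 at 50 or 200 µM for 4 h, then IA-DTB (500 µM, 1 h), trypsin-digested, NeutrAvidin-enriched and analysed by diaPASEF. Competition ratio = intensity DMSO / intensity compound (n=4 treated, n=64 DMSO); binding: mean log2 CR ≥ 1 and p ≤ 0.05 plus QC filters. Target is the cysteine site.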

Target	log2 mean competition ratio
MAP7D3 C572 (UniProt Q8IWC1)	-0.0165
MAP4K3 C509 (UniProt Q8IVH8)	0.0544
MAP3K20 C150 (UniProt Q9NYL2)	0.0142
MAP3K4 C193 (UniProt Q9Y6R4)	0.349
LRRC42 C301 (UniProt Q9Y546)	-0.0836
LYN C381 (UniProt P07948)	0.0159
LRRC42 C212 (UniProt Q9Y546)	0.0413
MAFF C68 (UniProt Q9ULX9)	0.0518
LZTFL1 C35 (UniProt Q9NQ48)	-0.133

same assay, conditions: 200 µM; treatment time: 4 h; cell line lysate: HEK293T

Target	log2 mean competition ratio
MAU2 C165 (UniProt Q9Y6X3)	-0.309
MAP1B C2041 (UniProt P46821)	0.472
LSM14B C80 (UniProt Q9BX40)	-0.072
MARCHF5 C33 (UniProt Q9NX47)	-0.0396
MAP3K2 C373 (UniProt Q9Y2U5)	-0.0894
MAPKAPK2 C224 (UniProt P49137)	-0.0369
MAP7D1 C361 (UniProt Q3KQU3)	-0.145
MCM3 C134 (UniProt P25205)	-0.42
LZTR1 C427 (UniProt Q8N653)	-0.282
MBTPS2 C371 (UniProt O43462)	0.543
MARVELD2 C395 (UniProt Q8N4S9)	0.139
LYPLA2 C171 (UniProt O95372)	0.258
MCC C174 (UniProt P23508)	0.264
LTN1 C498 (UniProt O94822)	-0.3
MACF1 C5346	0.345
MARS1 C309	-0.0812
LRSAM1 C418 (UniProt Q6UWE0)	0.538
MCM4 C509 (UniProt P33991)	-0.0861
MAPK3 C178	0.218

Target	log2 mean competition ratio
MARK1 C507 (UniProt Q9P0L2)	-0.107
LRRC14 C147 (UniProt Q15048)	0.149
LRRC1 C432	0.545
MCM6 C180 (UniProt Q14566)	-0.0593
LRWD1 C249 (UniProt Q9UFC0)	0.23
LZTS2 C444 (UniProt Q9BRK4)	-0.113
MCM3AP C1309 (UniProt O60318)	0.412
LRRC8D C218 (UniProt Q7L1W4)	-0.0456
LZTS2 C74 (UniProt Q9BRK4)	0.0316
MAP7D3 C572 (UniProt Q8IWC1)	0.0417
MAP4K3 C509 (UniProt Q8IVH8)	0.0401
MAP3K20 C150 (UniProt Q9NYL2)	0.0982
MAP3K4 C193 (UniProt Q9Y6R4)	0.51
LRRC42 C301 (UniProt Q9Y546)	-0.0144
LYN C381 (UniProt P07948)	0.309
LRRC42 C212 (UniProt Q9Y546)	-0.106
MAFF C68 (UniProt Q9ULX9)	0.158
LZTFL1 C35 (UniProt Q9NQ48)	-0.058

compound: ClCC(=O)N[C@H]1CCCc2ccccc12; experiment: as above; details: 50 µM; treatment time: 4 h; cell line lysate: HEK293T
Experimental: as §1

Target	log2 mean competition ratio
MAU2 C165 (UniProt Q9Y6X3)	-0.0233
MAP1B C2041 (UniProt P46821)	-0.315
LSM14B C80 (UniProt Q9BX40)	-0.334
MARCHF5 C33 (UniProt Q9NX47)	0.204
MAP3K2 C373 (UniProt Q9Y2U5)	-0.283
MAPKAPK2 C224 (UniProt P49137)	0.629
MAP7D1 C361 (UniProt Q3KQU3)	0.603
MCM3 C134 (UniProt P25205)	0.538
LZTR1 C427 (UniProt Q8N653)	-0.0316
MBTPS2 C371 (UniProt O43462)	0.493
MARVELD2 C395 (UniProt Q8N4S9)	-0.153
LYPLA2 C171 (UniProt O95372)	-0.421
MCC C174 (UniProt P23508)	-0.312
LTN1 C498 (UniProt O94822)	0.655
MACF1 C5346	-0.475
MARS1 C309	0.658
LRSAM1 C418 (UniProt Q6UWE0)	0.107
MCM4 C509 (UniProt P33991)	-0.327
MAPK3 C178	0.251

Target	log2 mean competition ratio
MARK1 C507 (UniProt Q9P0L2)	-0.476
LRRC14 C147 (UniProt Q15048)	-0.11
LRRC1 C432	-0.000433
MCM6 C180 (UniProt Q14566)	0.198
LRWD1 C249 (UniProt Q9UFC0)	-0.118
LZTS2 C444 (UniProt Q9BRK4)	-0.513
MCM3AP C1309 (UniProt O60318)	0.286
LRRC8D C218 (UniProt Q7L1W4)	-0.345
LZTS2 C74 (UniProt Q9BRK4)	0.802
MAP7D3 C572 (UniProt Q8IWC1)	-0.0249
MAP4K3 C509 (UniProt Q8IVH8)	-0.157
MAP3K20 C150 (UniProt Q9NYL2)	-0.283
MAP3K4 C193 (UniProt Q9Y6R4)	-0.365
LRRC42 C301 (UniProt Q9Y546)	-0.301
LYN C381 (UniProt P07948)	-0.282
LRRC42 C212 (UniProt Q9Y546)	0.00807
MAFF C68 (UniProt Q9ULX9)	0.0131
LZTFL1 C35 (UniProt Q9NQ48)	-0.473
